{"source": "patent US8343488B2", "about": "“Diagnosis and treatment of human dormancy-related sequellae” (priority 2002, dated 2013)", "test_system": "recurrent bronchitis", "test": "Case report: post-radiation recurrent bronchitis, antibacterial and antifungal therapy", "type": "in vivo, human", "settings": "10 day course; sputum positive for Serratia marcensus", "excerpt": "It is generally known that ACC is not usually sensitive to chemotherapy or standard […] beam radiation. Higher energy radiation doses, such as neutron beam radiation, have shown some promise and referral to the Cancer Center for radiation treatment was arranged. Under the care of a physician, 16 sessions of neutron beam radiation were provided, followed by two sessions of endotracheal brachytherapy with proton radiation. The patient tolerated the radiation relatively well and returned to work. They were warned that chronic bronchitis might follow airway radiation from the loss of salivary cells and ciliary cells in the bronchus. The patient was screened for recurrence twice yearly with neck MRI and lung CT for 3 years and there was no evidence of recurrence. Post radiation year 4 brought recurrent bronchitis that would remit temporarily with antibiotic therapy.\nBronchoscopy was performed in January of 2004 to better determine the source of recurrent bronchitis. There was no evidence of cancer recurrence (FIG. 1). […] Brochoscopic washings were also sent for fungal cultures. The patient's IgG levels to Penicillium and Aspergillus were elevated, while the routine fungal cultures from bronchial washings were negative. […] The patient reported reduced fatigue, reduced inhalant allergies and a slight reduction in volume of sputum production. […]", "note": "At least one structure is not confirmed: it was looked up by name or label, or the drawing left a doubt."}
{"molecule": "CO/N=C(\\C(=O)N[C@@H]1C(=O)N2C(C(=O)OC(C)OC(C)=O)=C(COC(N)=O)CS[C@H]12)c1ccco1", "note": "(stereo partly shown) [Ceftin]", "values": [{"measurement": "sputum and fatigue after course", "value": "productive sputum and fatigue resumed"}]}
